# Assay results: patent publication US9702824B2, “pH sensors” (PROMEGA CORPORATION, priority 2012, dated 2017)
# System: wild-type U2-OS cells
# Test: pH sensor specificity, non-specific binding (Example 10)
# Type: cell-based
# Conditions: 2 uM for 15 minutes
row,Molecule,non-specific binding
1,"4-((1-(4-((2-(2-((6-chlorohexyl)oxy)ethoxy)ethyl)carbamoyl)phenyl)-3-oxo-6,9,12,15-tetraoxa-2-azaheptadecan-17-yl)) 3′,6′-bis(4-(4-sulfobutyl)piperazin-1-yl) rhodamine(5′,6′)carboxamide [PBI-4995]",no non-specific binding
2,O=C(NCCOCCOCCOCCOCCOCCOCCCCCCCl)c1ccc(C(=O)[O-])c(-c2c3ccc(=[N+]4CCN(CCCCS(=O)(=O)O)CC4)cc-3oc3cc(N4CCN(CCCCS(=O)(=O)O)CC4)ccc23)c1 [PBI-4479],no non-specific binding
3,O=C(NCCOCCOCCCCCCCl)c1cccc(CNC(=O)c2ccc(C(=O)[O-])c(-c3c4ccc(=[N+]5CCN(CCCCS(=O)(=O)O)CC5)cc-4oc4cc(N5CCN(CCCCS(=O)(=O)O)CC5)ccc34)c2)c1 [PBI-4958],no non-specific binding
4,"O=C(NCCOCCOCCCCCCCl)c1ccc(CNC(=O)c2ccc(C(=O)[O-])c(-c3c4ccc(=[N+]5CCN(CCCCS(=O)(=O)O)CC5)cc-4oc4cc(N5CCN(CCCCS(=O)(=O)O)CC5)ccc34)c2)cc1 [PBI-4959, 4-((4-((2-(2-((6-chlorohexyl)oxy)ethoxy)ethyl)carbamoyl)benzyl))-3′,6′-bis(4-(4-sulfobutyl)piperazin-1-yl) rhodamine(5′,6′) carboxamide]",no non-specific binding
5,O=C(CCOCCOCCOCCOCCNC(=O)c1ccc(C(=O)[O-])c(-c2c3ccc(=[N+]4CCN(CCCCS(=O)(=O)O)CC4)cc-3oc3cc(N4CCN(CCCCS(=O)(=O)O)CC4)ccc23)c1)NCc1cccc(C(=O)NCCOCCOCCCCCCCl)c1 [PBI-4994],no non-specific binding
6,"O=C(NCC1CCC(C(=O)NCCOCCOCCCCCCCl)CC1)c1ccc(C(=O)[O-])c(-c2c3ccc(=[N+]4CCN(CCCCS(=O)(=O)O)CC4)cc-3oc3cc(N4CCN(CCCCS(=O)(=O)O)CC4)ccc23)c1 (stereo not drawn) [PBI-5004, 4-(((4-((2-(2-((6-chlorohexyl)oxy)ethoxy)ethyl)carbamoyl)cyclohexyl)methyl)) 3′,6′-bis(4-(4-sulfobutyl)piperazin-1-yl) rhodamine(5′,6′) carboxamide]",no non-specific binding
